Among the data in publication PMC4843017 are binding values, retold here.

Results are given in words; binding and its absence hold for the method and conditions named. Binding calls can cover weak binding; strength is not graded here.

This experiment has as its target tubulin/RB3 complex. Nature of the experiment: SEC; analytical size-exclusion migration shift assay; 15 μM each, 1 h on ice; Superdex 200 5/150 GL; 20 mM Hepes pH 7.5, 150 mM NaCl, 5% glycerol, 2 mM DTE; both purified.

B1: SKAP^135–225 (domain or fragment, UniProt Q9Y448 135-225)
chain: VTKITKLRRENGQMKATDTATRRNVRKGYKPLSKQKSEEELKDKNQLLEAVNKQLHQKLTETQGELKDLTQKVELLEKFRDNCLAILESKG
B1: the binding entry was “binds”.
